What follows is the remainder of the data, with few or none of the targets with a hit. The data scatter; read single values as rough. Only a part is listed here, and it is no random draw.

By UniProt entry, the sequences of proteins in these tests, tags left out. Where a name states a change or a piece, a line headed by the entry shows the natural chain unless it says otherwise.
UniProt Q9Y4C1: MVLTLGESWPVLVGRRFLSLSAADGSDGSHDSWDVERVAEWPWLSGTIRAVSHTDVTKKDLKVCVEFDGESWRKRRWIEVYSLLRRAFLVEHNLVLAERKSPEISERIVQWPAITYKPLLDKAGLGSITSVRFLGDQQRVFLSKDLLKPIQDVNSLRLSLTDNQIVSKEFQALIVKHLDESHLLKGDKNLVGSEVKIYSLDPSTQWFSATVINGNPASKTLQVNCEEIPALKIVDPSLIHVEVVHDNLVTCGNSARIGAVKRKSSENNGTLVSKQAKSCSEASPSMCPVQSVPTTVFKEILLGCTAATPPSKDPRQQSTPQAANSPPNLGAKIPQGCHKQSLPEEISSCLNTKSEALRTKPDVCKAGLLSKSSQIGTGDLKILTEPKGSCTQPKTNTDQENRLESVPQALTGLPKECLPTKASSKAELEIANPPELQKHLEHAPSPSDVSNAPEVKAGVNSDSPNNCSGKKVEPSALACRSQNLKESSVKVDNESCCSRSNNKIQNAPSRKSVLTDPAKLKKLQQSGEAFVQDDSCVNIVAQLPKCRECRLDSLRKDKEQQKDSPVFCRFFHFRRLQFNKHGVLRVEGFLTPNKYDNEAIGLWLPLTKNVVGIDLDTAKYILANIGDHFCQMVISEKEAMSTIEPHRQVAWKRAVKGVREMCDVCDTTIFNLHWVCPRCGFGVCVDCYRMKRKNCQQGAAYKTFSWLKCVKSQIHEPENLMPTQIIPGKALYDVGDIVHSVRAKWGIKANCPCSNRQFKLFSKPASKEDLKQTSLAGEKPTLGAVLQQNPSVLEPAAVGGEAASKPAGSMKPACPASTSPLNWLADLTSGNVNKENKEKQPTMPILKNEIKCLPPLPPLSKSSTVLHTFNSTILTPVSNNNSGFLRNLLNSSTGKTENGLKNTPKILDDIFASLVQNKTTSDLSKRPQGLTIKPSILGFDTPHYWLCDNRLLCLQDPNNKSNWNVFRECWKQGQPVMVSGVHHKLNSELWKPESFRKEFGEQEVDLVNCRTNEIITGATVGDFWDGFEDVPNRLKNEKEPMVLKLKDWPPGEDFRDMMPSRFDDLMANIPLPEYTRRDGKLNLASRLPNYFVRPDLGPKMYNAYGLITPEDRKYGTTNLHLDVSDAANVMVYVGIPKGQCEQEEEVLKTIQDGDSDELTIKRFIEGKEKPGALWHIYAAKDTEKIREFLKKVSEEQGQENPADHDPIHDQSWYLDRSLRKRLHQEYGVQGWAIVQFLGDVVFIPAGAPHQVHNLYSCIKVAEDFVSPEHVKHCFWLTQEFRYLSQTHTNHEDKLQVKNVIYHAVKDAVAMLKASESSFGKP
UniProt Q9Y673: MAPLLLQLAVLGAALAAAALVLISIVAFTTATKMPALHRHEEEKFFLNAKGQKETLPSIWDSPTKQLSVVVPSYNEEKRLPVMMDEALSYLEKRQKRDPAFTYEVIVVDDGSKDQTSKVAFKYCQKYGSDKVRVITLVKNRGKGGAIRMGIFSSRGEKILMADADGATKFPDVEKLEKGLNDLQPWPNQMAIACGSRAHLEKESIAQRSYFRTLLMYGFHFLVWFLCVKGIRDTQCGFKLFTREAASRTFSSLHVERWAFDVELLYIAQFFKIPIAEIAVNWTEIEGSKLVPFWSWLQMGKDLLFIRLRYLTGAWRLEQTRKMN
UniProt Q9Y520: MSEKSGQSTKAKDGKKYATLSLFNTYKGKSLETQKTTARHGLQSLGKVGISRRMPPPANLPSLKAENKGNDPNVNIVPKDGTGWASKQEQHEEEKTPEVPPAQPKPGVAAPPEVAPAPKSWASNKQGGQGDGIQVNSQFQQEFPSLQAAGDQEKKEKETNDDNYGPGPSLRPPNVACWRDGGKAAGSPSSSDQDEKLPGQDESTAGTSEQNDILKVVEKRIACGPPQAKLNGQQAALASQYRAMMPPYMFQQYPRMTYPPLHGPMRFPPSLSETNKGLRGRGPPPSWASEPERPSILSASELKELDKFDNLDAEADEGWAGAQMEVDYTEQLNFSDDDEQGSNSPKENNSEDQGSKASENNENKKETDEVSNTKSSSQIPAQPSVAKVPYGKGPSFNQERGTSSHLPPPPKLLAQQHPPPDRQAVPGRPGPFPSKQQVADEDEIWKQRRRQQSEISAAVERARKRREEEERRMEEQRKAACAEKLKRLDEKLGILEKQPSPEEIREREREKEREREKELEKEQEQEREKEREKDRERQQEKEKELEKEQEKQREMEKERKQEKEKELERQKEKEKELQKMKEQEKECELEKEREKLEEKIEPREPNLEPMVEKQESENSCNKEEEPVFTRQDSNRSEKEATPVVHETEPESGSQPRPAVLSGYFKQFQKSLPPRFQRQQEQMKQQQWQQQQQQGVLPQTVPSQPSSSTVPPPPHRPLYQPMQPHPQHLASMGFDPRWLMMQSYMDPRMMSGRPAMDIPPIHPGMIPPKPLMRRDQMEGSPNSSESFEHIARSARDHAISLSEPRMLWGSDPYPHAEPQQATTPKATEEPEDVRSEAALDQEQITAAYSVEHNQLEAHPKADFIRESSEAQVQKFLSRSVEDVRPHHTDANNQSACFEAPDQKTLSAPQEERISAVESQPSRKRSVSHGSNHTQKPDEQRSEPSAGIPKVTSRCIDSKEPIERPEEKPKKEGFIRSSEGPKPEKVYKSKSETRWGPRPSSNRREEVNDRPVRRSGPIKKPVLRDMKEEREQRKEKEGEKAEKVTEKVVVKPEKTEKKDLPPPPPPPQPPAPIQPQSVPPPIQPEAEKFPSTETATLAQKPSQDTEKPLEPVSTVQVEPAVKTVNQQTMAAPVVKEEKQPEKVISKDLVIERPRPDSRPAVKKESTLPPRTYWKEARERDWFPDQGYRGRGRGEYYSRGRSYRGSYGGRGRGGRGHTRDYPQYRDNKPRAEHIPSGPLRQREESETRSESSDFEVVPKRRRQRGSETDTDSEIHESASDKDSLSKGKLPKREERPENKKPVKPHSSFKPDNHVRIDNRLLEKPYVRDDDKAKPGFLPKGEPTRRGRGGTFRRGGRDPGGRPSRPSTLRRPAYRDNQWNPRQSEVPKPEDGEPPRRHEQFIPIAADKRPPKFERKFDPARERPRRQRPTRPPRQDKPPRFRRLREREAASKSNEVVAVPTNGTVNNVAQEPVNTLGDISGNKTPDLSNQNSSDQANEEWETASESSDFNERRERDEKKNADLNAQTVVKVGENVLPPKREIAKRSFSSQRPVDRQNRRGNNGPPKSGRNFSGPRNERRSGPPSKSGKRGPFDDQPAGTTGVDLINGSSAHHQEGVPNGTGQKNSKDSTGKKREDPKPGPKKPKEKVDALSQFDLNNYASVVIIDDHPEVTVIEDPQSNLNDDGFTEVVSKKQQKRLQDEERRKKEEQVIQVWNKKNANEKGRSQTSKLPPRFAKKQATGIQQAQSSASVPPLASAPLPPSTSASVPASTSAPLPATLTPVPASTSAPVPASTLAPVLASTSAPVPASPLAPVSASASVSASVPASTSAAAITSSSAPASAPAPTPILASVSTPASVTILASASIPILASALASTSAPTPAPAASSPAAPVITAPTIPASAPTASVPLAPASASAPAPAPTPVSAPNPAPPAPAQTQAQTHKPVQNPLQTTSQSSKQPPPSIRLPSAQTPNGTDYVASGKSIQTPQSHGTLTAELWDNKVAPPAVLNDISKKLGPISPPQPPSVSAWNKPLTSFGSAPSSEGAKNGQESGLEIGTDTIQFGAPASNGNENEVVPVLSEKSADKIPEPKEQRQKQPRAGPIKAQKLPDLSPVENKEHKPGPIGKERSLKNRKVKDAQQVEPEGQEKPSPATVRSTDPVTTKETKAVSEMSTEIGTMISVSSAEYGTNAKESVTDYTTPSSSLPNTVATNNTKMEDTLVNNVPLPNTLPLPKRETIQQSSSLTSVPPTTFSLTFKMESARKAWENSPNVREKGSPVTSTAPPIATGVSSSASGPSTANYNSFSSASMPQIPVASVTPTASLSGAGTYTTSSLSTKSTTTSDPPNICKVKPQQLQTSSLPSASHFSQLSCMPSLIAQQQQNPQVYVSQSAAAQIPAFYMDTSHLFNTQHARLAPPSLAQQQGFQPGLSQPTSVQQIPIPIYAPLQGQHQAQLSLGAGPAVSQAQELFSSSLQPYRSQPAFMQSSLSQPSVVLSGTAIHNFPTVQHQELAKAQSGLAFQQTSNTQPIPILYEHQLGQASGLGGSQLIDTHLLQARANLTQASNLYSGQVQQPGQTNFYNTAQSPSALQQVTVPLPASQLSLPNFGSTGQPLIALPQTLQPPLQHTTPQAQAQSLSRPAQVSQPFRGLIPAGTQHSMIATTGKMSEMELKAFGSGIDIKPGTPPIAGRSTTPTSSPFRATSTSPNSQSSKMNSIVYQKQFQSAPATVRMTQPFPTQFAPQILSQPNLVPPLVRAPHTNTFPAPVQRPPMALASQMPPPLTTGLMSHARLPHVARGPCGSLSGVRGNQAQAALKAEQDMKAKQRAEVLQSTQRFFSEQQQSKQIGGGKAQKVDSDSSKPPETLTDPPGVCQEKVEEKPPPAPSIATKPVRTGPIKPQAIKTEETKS
UniProt Q9Y5P6: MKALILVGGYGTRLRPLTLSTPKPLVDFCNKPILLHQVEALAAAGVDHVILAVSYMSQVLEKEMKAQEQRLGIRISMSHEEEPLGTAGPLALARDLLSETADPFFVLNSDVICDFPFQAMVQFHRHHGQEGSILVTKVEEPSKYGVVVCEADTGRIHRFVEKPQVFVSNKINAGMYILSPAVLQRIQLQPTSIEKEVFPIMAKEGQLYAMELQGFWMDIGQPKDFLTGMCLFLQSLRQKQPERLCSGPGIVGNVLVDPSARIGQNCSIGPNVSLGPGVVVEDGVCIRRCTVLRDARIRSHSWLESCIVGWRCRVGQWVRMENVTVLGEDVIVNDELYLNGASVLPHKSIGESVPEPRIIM
UniProt Q9Y5R8, whole entry: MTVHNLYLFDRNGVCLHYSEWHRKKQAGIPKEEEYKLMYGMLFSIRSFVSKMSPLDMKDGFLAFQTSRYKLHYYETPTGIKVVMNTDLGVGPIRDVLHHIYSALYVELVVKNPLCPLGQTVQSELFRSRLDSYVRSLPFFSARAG
UniProt Q9Y4B6: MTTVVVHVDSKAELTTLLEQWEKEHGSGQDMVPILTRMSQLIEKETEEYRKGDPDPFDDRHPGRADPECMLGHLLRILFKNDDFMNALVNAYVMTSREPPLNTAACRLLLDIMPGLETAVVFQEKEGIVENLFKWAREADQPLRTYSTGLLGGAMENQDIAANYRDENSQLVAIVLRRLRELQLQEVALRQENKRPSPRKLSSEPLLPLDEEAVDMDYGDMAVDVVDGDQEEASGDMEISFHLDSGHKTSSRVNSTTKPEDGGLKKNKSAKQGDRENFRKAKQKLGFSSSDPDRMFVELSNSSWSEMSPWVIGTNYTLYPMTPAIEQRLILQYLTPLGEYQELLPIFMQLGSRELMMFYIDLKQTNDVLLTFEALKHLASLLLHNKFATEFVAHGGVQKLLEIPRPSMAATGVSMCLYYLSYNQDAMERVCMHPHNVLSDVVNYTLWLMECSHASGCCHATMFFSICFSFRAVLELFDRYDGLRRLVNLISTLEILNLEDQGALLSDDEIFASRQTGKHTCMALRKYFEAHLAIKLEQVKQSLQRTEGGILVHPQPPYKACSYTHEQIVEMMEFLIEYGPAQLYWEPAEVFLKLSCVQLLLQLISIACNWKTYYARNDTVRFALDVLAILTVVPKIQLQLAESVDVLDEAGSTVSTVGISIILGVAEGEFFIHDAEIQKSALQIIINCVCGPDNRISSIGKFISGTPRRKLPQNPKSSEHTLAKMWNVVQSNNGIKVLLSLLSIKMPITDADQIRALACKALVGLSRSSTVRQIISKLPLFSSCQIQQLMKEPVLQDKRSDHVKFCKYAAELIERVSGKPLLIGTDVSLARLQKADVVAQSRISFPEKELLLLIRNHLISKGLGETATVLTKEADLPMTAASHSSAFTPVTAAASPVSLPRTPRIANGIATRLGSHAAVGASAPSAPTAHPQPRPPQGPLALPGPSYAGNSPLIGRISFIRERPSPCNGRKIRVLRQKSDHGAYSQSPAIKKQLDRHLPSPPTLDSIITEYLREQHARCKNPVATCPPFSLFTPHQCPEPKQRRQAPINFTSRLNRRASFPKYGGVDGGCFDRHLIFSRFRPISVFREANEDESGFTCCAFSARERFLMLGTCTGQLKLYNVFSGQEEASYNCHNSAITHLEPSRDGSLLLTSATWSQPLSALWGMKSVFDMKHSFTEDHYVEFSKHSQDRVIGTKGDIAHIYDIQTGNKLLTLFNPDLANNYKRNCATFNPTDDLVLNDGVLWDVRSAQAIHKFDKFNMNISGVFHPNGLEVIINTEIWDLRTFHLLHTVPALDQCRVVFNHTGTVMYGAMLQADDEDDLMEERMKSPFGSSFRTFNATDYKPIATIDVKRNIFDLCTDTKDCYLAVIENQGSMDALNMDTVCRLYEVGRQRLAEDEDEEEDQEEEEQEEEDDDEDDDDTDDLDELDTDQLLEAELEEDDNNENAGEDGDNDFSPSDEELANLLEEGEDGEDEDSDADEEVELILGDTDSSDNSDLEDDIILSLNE

Compound in the test: COC(=O)/C=C/c1ccccc1 [methyl cinnamate]
Briefly: log2 ratio of iodoacetamide-alkyne labeling of the cysteine site, DMSO over compound (competition); higher = stronger covalent engagement of the cysteine by the compound, active = 1 or more. The following applies: 500 µM; treatment time 1 h; system: HEK293T cell lysate. In outline:
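HEK293T lysate (2 mg/mL) was treated with DMSO or electrophile (500 µM, 1 h, ambient temperature), then iodoacetamide alkyne (1 h), clicked to sCIP-TMT reagents, pooled, trypsin-digested overnight at 37 °C, streptavidin-enriched and acid-eluted. Peptides were run on Orbitrap Eclipse LC-MS/MS with FAIMS and quantified in FragPipe. The log2 competition ratio per cysteine is mean control-channel over mean compound-channel reporter intensity. Duplicate channels and three replicates were used, and cysteines quantified in only one replicate were excluded.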
For UniProt Q9Y4C1_C947, the “log2 ratio of iodoacetamide-alkyne labeling” value (shortened to “log2 ratio”) was inactive: 0.154. For UniProt Q9Y5P4_C185, the “log2 ratio” value was inactive: 0.142. The value for ALG5 C194 (UniProt Q9Y673) was inactive: -0.0996; that for TACC3 C20 (UniProt Q9Y6A5) was inactive: 0.451; that for AIM1 C976 (UniProt Q9Y4K1) was inactive: 0.0837. For USP15 C381 (UniProt Q9Y4E8), the “log2 ratio” value is inactive: -0.0402. The value for UTP18 C241 (UniProt Q9Y5J1) was inactive: 0.0275; that for LAS1L C690 (UniProt Q9Y4W2) was inactive: 0.0473. Take NFS1 C426 (UniProt Q9Y697): the “log2 ratio” value is inactive: 0.357.

With KCTD3 C606 (UniProt Q9Y597), the “log2 ratio” value was inactive: 0.246. In the case of UniProt Q9Y520_C895, the “log2 ratio” value was inactive: 0.292. Take MORC2 C962 (UniProt Q9Y6X9): the “log2 ratio” value is inactive: 0.149. TCAF1 C487 (UniProt Q9Y4C2): the “log2 ratio” value is inactive: 0.213. ARFGEF2 C1206 (UniProt Q9Y6D5): the “log2 ratio” value was inactive: 0.153.

Consider TCAF1 C543 (UniProt Q9Y4C2), for which the “log2 ratio” value was inactive: 0.372.

For the target GMPPB C245 (UniProt Q9Y5P6), the “log2 ratio” value was inactive: 0.321. With CEP170B C1570 (UniProt Q9Y4F5), the “log2 ratio” value was inactive: 0.408. The result for SNX9 C252 (UniProt Q9Y5X1) reads inactive: -0.107. The result for CLIC4 C100 (UniProt Q9Y696) reads inactive: 0.0409. The value for CLIC4 C35 (UniProt Q9Y696) was inactive: 0.251. ZHX2 C738 (UniProt Q9Y6X8): the “log2 ratio” value was inactive: 0.22. Turning to USP16 C618 (UniProt Q9Y5T5), the “log2 ratio” value is inactive: 0.0638.

FHOD1 C502 (UniProt Q9Y613): the “log2 ratio” value was inactive: 0.233. Turning to TELO2 C644 (UniProt Q9Y4R8), the “log2 ratio” value was inactive: 0.34. Take DTNA C583 (UniProt Q9Y4J8): the “log2 ratio” value was inactive: 0.286.

In the case of TLN1 C1045 (UniProt Q9Y490), the “log2 ratio” value is inactive: 0.0231. The result for LAS1L C699 (UniProt Q9Y4W2) reads inactive: 0.162; that for GTF3C5 C411 (UniProt Q9Y5Q8), inactive: 0.0765; that for TRAPPC1 C115 (UniProt Q9Y5R8), inactive: 0.543. TLN1 C2243 (UniProt Q9Y490): the “log2 ratio” value is inactive: 0.0684.

Consider UniProt Q9Y4B6_C784, for which the “log2 ratio” value was inactive: 0.16.
